Results published in the supplement of paper PMC4604168 (melanoma cell lines).
The other results are listed elsewhere or left out. Single values are uncertain, as repeats are few or missing.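 Cells were imaged in 1,536-well plates, and nuclei stained with an antibody against cleaved PARP were counted against all DNA-stained nuclei to give the apoptosis fraction. Screening doses were chosen to leave most cells alive, and resting and induced cleaved-PARP levels differ strongly between cell lines.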

How the values were obtained:
Test in all cases: cleaved PARP positive nuclei fraction relative to DMSO control; melanoma cells; higher = more apoptosis
Settings in all cases: library dose: low library concentration; 72 h
MZ2-MEL = test system: MZ2-MEL
MeWo = test system: MeWo
RPMI7951 = test system: RPMI7951
RVH-421 = test system: RVH-421
SkMel28 = test system: SkMel28
SkMel2 = test system: SkMel2
SkMel30 = test system: SkMel30
UACC62 = test system: UACC62
WM115 = test system: WM115
WM1716 = test system: WM1716
WM1745 = test system: WM1745
WM3526 = test system: WM3526
WM3619 = test system: WM3619
WM451Lu = test system: WM451Lu

SMILES	cleaved PARP positive nuclei fraction (MZ2-MEL) [%]	cleaved PARP positive nuclei fraction (MeWo) [%]	cleaved PARP positive nuclei fraction (RPMI7951) [%]	cleaved PARP positive nuclei fraction (RVH-421) [%]	cleaved PARP positive nuclei fraction (SkMel28) [%]	cleaved PARP positive nuclei fraction (SkMel2) [%]	cleaved PARP positive nuclei fraction (SkMel30) [%]	cleaved PARP positive nuclei fraction (UACC62) [%]	cleaved PARP positive nuclei fraction (WM115) [%]	cleaved PARP positive nuclei fraction (WM1716) [%]	cleaved PARP positive nuclei fraction (WM1745) [%]	cleaved PARP positive nuclei fraction (WM3526) [%]	cleaved PARP positive nuclei fraction (WM3619) [%]	cleaved PARP positive nuclei fraction (WM451Lu) [%]
CS(=O)(=O)c1ccc(C(=O)Nc2ccc(Cl)c(-c3ccccn3)c2)c(Cl)c1 [vismodegib] + CC(=O)O[C@@]12CO[C@@H]1C[C@H](O)[C@@]1(C)C(=O)[C@H](O)C3=C(C)[C@@H](OC(=O)[C@H](O)[C@@H](NC(=O)OC(C)(C)C)c4ccccc4)C[C@@](O)([C@@H](OC(=O)c4ccccc4)[C@H]21)C3(C)C [Docetaxel] (first compound 1 µM, partner dose 0.0001 µM)	510	798	273	138	295	586	176	404	174	533	156	195	112	199
COc1ccc(C2=N[C@@H](c3ccc(Cl)cc3)[C@@H](c3ccc(Cl)cc3)N2C(=O)N2CCNC(=O)C2)c(OC(C)C)c1 [Nutlin-3] + Nc1ncn([C@H]2C[C@H](O)[C@@H](CO)O2)c(=O)n1 [decitabine] (first compound 0.1 µM, partner dose 0.1 µM)	140	97.6	124	65.9	476	130	158	85.1	167	166	105	70.5	110	37.3
CC1(C)CCC(c2ccc(Cl)cc2)=C(CN2CCN(c3ccc(C(=O)NS(=O)(=O)c4ccc(N[C@H](CCN5CCOCC5)CSc5ccccc5)c(S(=O)(=O)C(F)(F)F)c4)cc3)CC2)C1 + Cc1ccc(Nc2nccc(N(C)c3ccc4c(C)n(C)nc4c3)n2)cc1S(N)(=O)=O [Pazopanib] (first compound 0.4 µM, partner dose 0.4 µM)	243	167	206	34.7	179	199	176	89.9	222	74.8	643	49.2	99.4	212
C[C@@H](N)c1ccc(C(=O)Nc2ccnc3[nH]ccc23)cc1 + Nc1nc(F)nc2c1ncn2[C@@H]1O[C@H](CO)[C@@H](O)[C@@H]1O [fludarabine] (first compound 0.4 µM, partner dose 0.2 µM)	135	2790	36	43.8	399	2860	732	233	220	199	115	391	92.4	146
Cn1cnc2c(F)c(Nc3ccc(Br)cc3Cl)c(C(=O)NOCCO)cc21 [selumetinib] + OCc1c[nH]c2ccccc12 [Indole-3-carbinol] (first compound 0.015 µM, partner dose 0.8 µM)	231	189	64.2	73.1	163	31.7	59.7	215	63.9	543	108	48.2	143	80.7
CCCCCCCCc1ccc(CCC(N)(CO)CO)cc1 [fingolimod] + Cn1nnc2c(C(N)=O)ncn2c1=O [temozolomide] (first compound 2 µM, partner dose 2 µM)	66.1	95	38.4	83.4	138	62.4	68.4	183	179	91.3	134	40.7	90.7	29
CS(=O)(=O)c1ccc(C(=O)Nc2ccc(Cl)c(-c3ccccn3)c2)c(Cl)c1 [vismodegib] + OCc1c[nH]c2ccccc12 [Indole-3-carbinol] (first compound 1 µM, partner dose 0.8 µM)	33.8	31.5	100	68.5	124	109	90.8	145	72.1	183	91.8	38.6	108	220
C[C@@H](N)c1ccc(C(=O)Nc2ccnc3[nH]ccc23)cc1 + CC(C)C[C@H](NC(=O)[C@H](Cc1ccccc1)NC(=O)c1cnccn1)B(O)O [Bortezomib] (first compound 0.4 µM, partner dose 0.001 µM)	75.1	510	49.1	181	125	167	88.5	279	69.2	83.3	143	660	322	45.6
COc1ccc(C2=N[C@@H](c3ccc(Cl)cc3)[C@@H](c3ccc(Cl)cc3)N2C(=O)N2CCNC(=O)C2)c(OC(C)C)c1 [Nutlin-3] + CC(=O)O[C@@]12CO[C@@H]1C[C@H](O)[C@@]1(C)C(=O)[C@H](O)C3=C(C)[C@@H](OC(=O)[C@H](O)[C@@H](NC(=O)OC(C)(C)C)c4ccccc4)C[C@@](O)([C@@H](OC(=O)c4ccccc4)[C@H]21)C3(C)C [Docetaxel] (first compound 0.1 µM, partner dose 0.0001 µM)	483	500	72.4	208	120	420	221	591	302	283	140	185	177	241
CCCCCCCCc1ccc(CCC(N)(CO)CO)cc1 [fingolimod] + CC(=O)O[C@@]12CO[C@@H]1C[C@H](O)[C@@]1(C)C(=O)[C@H](O)C3=C(C)[C@@H](OC(=O)[C@H](O)[C@@H](NC(=O)OC(C)(C)C)c4ccccc4)C[C@@](O)([C@@H](OC(=O)c4ccccc4)[C@H]21)C3(C)C [Docetaxel] (first compound 2 µM, partner dose 0.0001 µM)	385	411	205	54.2	114	544	169	181	109	126	147	70.1	105	233
COc1ccc(C2=N[C@@H](c3ccc(Cl)cc3)[C@@H](c3ccc(Cl)cc3)N2C(=O)N2CCNC(=O)C2)c(OC(C)C)c1 [Nutlin-3] + OCc1c[nH]c2ccccc12 [Indole-3-carbinol] (first compound 0.1 µM, partner dose 0.8 µM)	80.5	106	268	131	273	95.6	115	200	164	80.7	90.1	203	97.1	49
C[C@@H](N)c1ccc(C(=O)Nc2ccnc3[nH]ccc23)cc1 + Cc1nc(Nc2ncc(C(=O)Nc3c(C)cccc3Cl)s2)cc(N2CCN(CCO)CC2)n1 [dasatanib] (first compound 0.4 µM, partner dose 0.004 µM)	279	223	60.6	77.9	131	159	26.1	110	81.3	158	202	260	115	51.7
NC1(c2ccc(-c3nc4ccn5c(=O)[nH]nc5c4cc3-c3ccccc3)cc2)CCC1 + CNC(=O)c1cc(Oc2ccc(NC(=O)Nc3ccc(Cl)c(C(F)(F)F)c3)cc2)ccn1 [sorafenib] (first compound 0.4 µM, partner dose 0.4 µM)	70.3	143	33.7	82	137	49	64.9	148	228	62.7	110	59	112	41.4
CC(=O)O[C@@]12CO[C@@H]1C[C@H](O)[C@@]1(C)C(=O)[C@H](O)C3=C(C)[C@@H](OC(=O)[C@H](O)[C@@H](NC(=O)OC(C)(C)C)c4ccccc4)C[C@@](O)([C@@H](OC(=O)c4ccccc4)[C@H]21)C3(C)C [Docetaxel] + CN1CCN(c2ccc3nc(-c4c(N)c5c(F)cccc5[nH]c4=O)[nH]c3c2)CC1 [Dovitinib] (first compound 0.0001 µM, partner dose 0.1 µM)	440	748	155	121	748	1490	762	405	542	1590	240	105	160	90.4
C[C@@H](N)c1ccc(C(=O)Nc2ccnc3[nH]ccc23)cc1 + C[C@]1(O)C[C@@H](c2nc(-c3ccc4ccc(-c5ccccc5)nc4c3)c3c(N)nccn32)C1 [OSI906] (first compound 0.4 µM, partner dose 0.4 µM)	206	124	481	329	130	73.5	272	595	168	209	158	245	113	197
CC(=O)O[C@@]12CO[C@@H]1C[C@H](O)[C@@]1(C)C(=O)[C@H](O)C3=C(C)[C@@H](OC(=O)[C@H](O)[C@@H](NC(=O)OC(C)(C)C)c4ccccc4)C[C@@](O)([C@@H](OC(=O)c4ccccc4)[C@H]21)C3(C)C [Docetaxel] + O=C(O)[C@@H]1[O][Sb](=[O])([O][Sb]2(=[O])[O][C@H]([C@H](O)CO)[C@H](O)[C@H](C(=O)O)[O]2)[O][C@H]([C@H](O)CO)[C@@H]1O [stibogluconate] (first compound 0.0001 µM, partner dose 2 µM)	679	718	266	121	247	650	130	435	243	718	172	173	129	162
C[C@]1(O)C[C@@H](c2nc(-c3ccc4ccc(-c5ccccc5)nc4c3)c3c(N)nccn32)C1 + COc1ccc(Cl)c(Nc2nc3ccccc3nc2NS(=O)(=O)c2cccc(NC(=O)C(C)(C)N)c2)c1 [XL147] (first compound 0.4 µM, partner dose 0.8 µM)	154	92.5	118	65.8	81	53.1	105	265	44.7	62	118	52.8	198	157

Single records, as listed above. Order of values: cleaved PARP positive nuclei fraction (MZ2-MEL) [%] | cleaved PARP positive nuclei fraction (MeWo) [%] | cleaved PARP positive nuclei fraction (RPMI7951) [%] | cleaved PARP positive nuclei fraction (RVH-421) [%] | cleaved PARP positive nuclei fraction (SkMel28) [%] | cleaved PARP positive nuclei fraction (SkMel2) [%] | cleaved PARP positive nuclei fraction (SkMel30) [%] | cleaved PARP positive nuclei fraction (UACC62) [%] | cleaved PARP positive nuclei fraction (WM115) [%] | cleaved PARP positive nuclei fraction (WM1716) [%] | cleaved PARP positive nuclei fraction (WM1745) [%] | cleaved PARP positive nuclei fraction (WM3526) [%] | cleaved PARP positive nuclei fraction (WM3619) [%] | cleaved PARP positive nuclei fraction (WM451Lu) [%]
C[C@@H](N)c1ccc(C(=O)Nc2ccnc3[nH]ccc23)cc1 + C[C@]1(O)C[C@@H](c2nc(-c3ccc4ccc(-c5ccccc5)nc4c3)c3c(N)nccn32)C1 [OSI906] (first compound 0.4 µM, partner dose 0.4 µM) in the list: 206 | 124 | 481 | 329 | 130 | 73.5 | 272 | 595 | 168 | 209 | 158 | 245 | 113 | 197
C[C@@H](N)c1ccc(C(=O)Nc2ccnc3[nH]ccc23)cc1 + CC(C)C[C@H](NC(=O)[C@H](Cc1ccccc1)NC(=O)c1cnccn1)B(O)O [Bortezomib] (first compound 0.4 µM, partner dose 0.001 µM) in the list: 75.1 | 510 | 49.1 | 181 | 125 | 167 | 88.5 | 279 | 69.2 | 83.3 | 143 | 660 | 322 | 45.6
